Entries after “also recorded” stand apart in the source; their conditions may differ. At least one peptide structure holds a part that was inferred or is arguable (an end, a ring closure or a residue). Where a SMILES comes first, the peptide text is derived from it. [ ]: non-standard residue; d: D form. Cit = NC(=O)NCCC[C@H](N)C(=O)O
Columns and labels:
[1] = system: B16 HHDII/iDP4 tumour cells; assay: Tumour challenge, B16 HHDII/iDP4 in HHDII/DP4 mice; type: in vivo; details: day 29 post tumour implant
From the text: HHDII/DP4 mice were challenged with B16 tumour with IFNγ inducible DP4. Four days later the HHDII/DP4 mice were immunised with Cyk8 371-388 cit or Cyk8 371-388 wt peptide on days 4, 11 and 18. Overall survival (A), tumour volume (B) at day 29 and tumour volume throughout the study (C), post tumour implant are shown for unimmunised control mice and mice immunised with either Cyk8 371-388 cit peptide or Cyk8 371-388 wt peptide. Statistical differences between immunised and control mice were determined by Mantel-Cox test, p values are shown. The tumour volume medians and p values are shown as determined by Mann Whitney U test, n=10 in all group.
HHDII/DP4 mice were challenged with B16 tumour with IFNγ inducible DP4. Four days later the HHDII/DP4 mice were immunised with Cyk8 371-388 cit peptide on days 4, 11 and 18. Overall survival (A), tumour volume (B) at day 24 and tumour volume throughout the study (C), post tumour implant are shown for unimmunised control mice and mice immunised with Cyk8 101-120 cit peptide. Statistical differences between immunised and control mice were determined by Mantel-Cox test, p values are shown. The tumour volume medians and p values are shown as determined by Mann Whitney U test, n=10 in all group.
For tumour challenge experiments, mice were challenged with 1×10^5 B16 HHDII/iDP4 cells subcutaneously on the right flank […] before primary immunisation (unless stated otherwise) and then immunised as described above. Tumour growth was monitored at 3-4 days intervals and mice humanely euthanised once tumour reached ≥10 mm in diameter.
The effect of immunisation with Cyk8 371-388 (cit and wt) on the growth of the mouse B16 melanoma cell line transfected with IFNγ inducible human DP4 (iDP4) was assessed in HHDII/DP4 transgenic mice (FIG. 9A). […]
The effect of immunisation with Cyk8 101-120 cit on the growth of the mouse B16 melanoma cell line transfected with IFNγ inducible human DP4 (iDP4) was assessed in HHDII/DP4 transgenic mice (FIG. 10A). […]

[2] = system: HHDII/DP4 transgenic mice; assay: Ex vivo IFNγ ELISpot on splenocytes of peptide-immunised HHDII/DP4 mice; type: in vivo, mouse
Experimental: The HHDII/HLA-DP4 transgenic strain of mouse as described in patent WO2013/017545 A1 (EMMA repository, France) and C57BL/6 mice (Charles River, UK) were used, aged between 8 and 12 weeks, and cared for by the staff at Nottingham Trent University. All work was carried out under a Home Office project licence. Peptides were dissolved in 10% dimethylformamide to 1 mg/mL and then emulsified (a series of dilutions) with the adjuvant CpG and MPLA 6 μg/mouse of each (Invivogen, UK). Peptides (25 μg/mouse) were injected subcutaneously at the base of the tail.
ELISpot assays were performed using murine IFNγ capture and detection reagents according to the manufacturer's instructions (Mabtech, Sweden). In brief, anti-IFNγ antibody was coated onto wells of a 96-well Immobilin-P plate. Synthetic peptides (at a variety of concentrations) and 5×10^5 per well splenocytes were added to the wells of the plate in triplicate. LPS at 5 μg/mL was used as a positive control. Peptide pulsed target cells were added where relevant at 5×10^4 per well in triplicate and plates incubated for 40 hours at 37° C. After incubation, captured IFNγ was detected by a biotinylated anti-IFNγ antibody and developed with a streptavidin alkaline phosphatase and chromogenic substrate. Lipopolysaccharide (LPS; 5 μg/mL) was used as a positive control. For blocking studies, anti-CD4 blocking antibody (RPA-T4) and anti-CD8 blocking antibody (2.43) from Bioxcell were used at 20 μg/mL. Spots were analysed and counted using an automated plate reader (Cellular Technologies Ltd).
HHDII/DP4 and C57BL/6 mice were immunised with human citrullinated peptides in combination with CpG/MPLA as an adjuvant. 25 μg of peptide was administered subcutaneously as a single immunisation given once a week for three weeks Mice were culled 7 days after the third immunisation, the immune response to each peptide was assessed by ex vivo IFNγ ELISpot (FIG. 2). We have previously shown that citrullinated peptides can induce responses in the transgenic DR4 mouse strain. Given that different mouse strains have different MHC repertoires, the transgenic strain HHDII/DP4 and non-transgenic C57BL/6 mice were used for screening.
To determine if the immune response to the Cyk8 peptides is specific to the citrullinated peptide and not the wild type (wt) version, HHDII/DP4 transgenic mice were immunised with Cyk8 101-120 cit, 133-151 cit, 217-236 cit, 371-388 cit, 381-399 cit or Cyk8 101 wt, 133-151 wt, 371-388 wt peptides. HHDII/DP4 mice received 25 μg peptide with CpG/MPLA subcutaneously once a week for three weeks. Mice were culled 7 days after the third immunisation, the immune response to each peptide was assessed by ex vivo ELISpot (FIGS. 3A and 3B).
To determine whether the response to Cyk8 8-26 cit, Cyk8 101-120 cit, Cyk8 133-151 cit, Cyk8 371-388 cit, Cyk8 381-399 cit is CD4 dependent HHDII/DP4 transgenic mice and C57BL/6 mice received 25 μg peptide subcutaneously in combination with CpG/MPLA as an adjuvant, once a week for three weeks (FIG. 6A HHDII/DP4, FIG. 6B C57BL/6). Mice were culled 7 days after the third immunisation, an ELISpot assay was performed in the presence of an anti CD4 or CD8 antibody. […]

[3] = system: splenocytes of immunised HHDII/DP4 mice; assay: Peptide titration (avidity of T cell response) by IFNγ ELISpot; type: cell-based, mouse; details: peptide titration 0.001 to 10 μg/ml
Experimental: Transgenic mouse strains expressing HHDII/DP4 and parental C57BL mice were used to screen for IFNγ responses to peptide (A and B respectively). Mice were immunised with peptide pools of up to 2-3 non-overlapping human Cyk8 citrullinated peptides over three weeks. Splenocytes were harvested 21 days after the initial dose was administered. Ex vivo responses to stimulation with human Cyk8 cit peptides was assessed by IFNγ ELISpot. Media only responses were used as a negative control. n≥3 symbol represents mean response for individual mice, line represents median value between mice. Statistical significance of peptide response was compared to media only responses for each pool and determined using ANOVA with Dunnett's post-hoc test * […], ** p<0.01, *** p<0.001, **** p<0.0001, only significant p values are shown. […]
ELISpot assays were performed using murine IFNγ capture and detection reagents according to the manufacturer's instructions (Mabtech, Sweden). […] After incubation, captured IFNγ was detected by a biotinylated anti-IFNγ antibody and developed with a streptavidin alkaline phosphatase and chromogenic substrate. […] Spots were analysed and counted using an automated plate reader (Cellular Technologies Ltd).
Significant IFNγ responses were detected to human Cyk8 citrullinated peptides in transgenic HHDII/DP4 mice (FIG. 2A) and C57BL/6 mice (FIG. 2B). […]

[4] = HHDII/DP4, blocking antibody 20 μg/mL

## CC[C@H](C)[C@H](NC(=O)[C@H](CCC(=O)O)NC(=O)[C@@H](NC(=O)[C@H](CC(=O)O)NC(=O)[C@H](CC(C)C)NC(=O)[C@H](C)NC(=O)[C@H](CC(C)C)NC(=O)[C@H](CCCCN)NC(=O)[C@@H](NC(=O)[C@H](CC(N)=O)NC(=O)[C@H](CCSC)NC(=O)[C@H](CC(C)C)NC(=O)[C@H](CCC(=O)O)NC(=O)[C@H](CCC(N)=O)NC(=O)[C@H](Cc1ccc(O)cc1)NC(=O)[C@H](CCC(=O)O)NC(=O)[C@H](CCCNC(N)=O)NC(=O)[C@@H](N)CC(C)C)C(C)C)[C@@H](C)CC)C(=O)O [Cyk8 371-388 cit, L-cit-EYQELMNVKLALDIEI] (H-L[Cit]EYQELMNVKLALDIEI-OH)
[1]
  tumour volume, median: 0 mm^3
[2]; 25 μg peptide s.c. with CpG/MPLA once a week for three weeks, ELISpot 7 days after third immunisation
  IFNγ responses detected in immunised mice: Moderate to high
[2]; 2 days prior to splenocyte harvest
  IFNγ responses after a single immunisation: No responses were detected; also recorded: could not be detected
[2]; 14 days prior to splenocyte harvest
  IFNγ responses after a single immunisation: Moderate to high; also recorded: could be detected
[2]; [4]
  IFNγ response in the presence of the CD8 antibody: not significantly reduced
  IFNγ response in the presence of the anti CD4 antibody: significantly reduced
[2]; HHDII/DP4 mice immunised with cit peptide
  cross-reactivity of the response to the wt version: no cross-reactivity
[2]; screening, HHDII/DP4 mice, 25 μg peptide with CpG/MPLA weekly for three weeks
  IFNγ response to citrullinated peptide compared to media only: significant immune responses
[2]; summary statement
  T cell responses in HLA-DP4 transgenic mice: potent T cell responses
  reactivity to the unmodified wildtype sequence: minimal reactivity
[3]
  log EC50 (avidity of T cell response): -7.1 to-7.6 M

Reference: patent US20250269000A1, “ANTI-TUMOUR RESPONSES TO CYTOKERATINS” (SCANCELL LIMITED, priority 2020, published 2025)
